Reference: PubChem BioAssay AID1487 (National Center for Advancing Translational Sciences (NCATS), 2009)
“And” between values parts separate entries of the source, which are not always exact repeats. Equal values may be shown once. The list shows a part of the results. These are further read-outs of the screen, such as a control signal, another cell line or another target. No call is given for them. The list favours compounds with an active or inconclusive main result. Words in brackets tell the shape of the fitted curve; partial curves, single points and poor fits give uncertain potencies.

Test: qHTS Assay for Modulators of Lamin A Splicing
Conditions: HeLa LMNA splicing GFP/RFP minigene ratio, 48 h
Outline: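 S3 HeLa stable clones carrying a lamin A-EGFP splicing minigene plus DsRed2 were seeded at 600 cells/well in Opti-MEM with 2% FBS, pin-dosed and incubated 48 h at 37°C. Acumen cytometry (488 nm) gave the GFP/RFP total-intensity ratio.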

[1] = measured here: RFP viability control channel
[2] = measured here: GFP splicing reporter channel

SMILES | AC50 [1] | AC50 [2]
O=C(CSc1nc2c([nH]c3ccccc32)c(=O)n1-c1ccccc1)Nc1ccccc1F | 2 µM [falling, partial curve, poor fit] | –
Cc1nnc(SCC(=O)N2CCN(S(=O)(=O)c3ccccc3)CC2)n1Cc1ccccc1 | 25.1 µM [rising, single point] | 20 µM [rising, single point]
COC(=O)[C@@H]1[C@@H](C)OC(=O)N[C@H]1c1ccccc1 | – | 0.794 µM [falling, partial curve, poor fit]
Cc1ccccc1-c1nn(-c2ccc(F)cc2F)cc1CNCCN(C)C | – | 35.5 µM [falling, single point]
CC[n+]1c(/C=C2/C=C(C)CC(C)(C)C2)sc2ccc(OC)cc21 | 35.5 µM [falling, single point] | 35.5 µM [falling, single point]
CCOc1ccc(-c2nnc(NC3=NCCCCC3)o2)cc1 | 35.5 µM [rising, single point] | –
COc1ccc(N2C3=C(CC4=C2CC(C)(C)CC4=O)C(=O)CC(C)(C)C3)cc1 | – | 35.5 µM [falling, single point]
COc1ccc(Br)cc1CN1CCN(C(=O)c2ccc(OC)c(OC)c2)CC1 | 1.58 µM [falling, partial curve, poor fit] | –
CCN(CC)C(=O)c1sc(NC(=O)c2cccs2)c(C#N)c1C | 1.26 µM [falling, partial curve, poor fit] | –
COC(=O)CSCC(=O)Nc1nnc(-c2cccc(C)c2)s1 | 1.58 µM [falling, partial curve] | –
COc1cccc(-c2nc(N3CC(C)CC(C)C3)c3ccccc3n2)c1O (stereo not given) | 14.1 µM [rising, single point] | 12.6 µM [rising, single point]
CN1CCN(C2=Cc3ccc(Cl)cc3Sc3ccc(F)cc32)CC1 | 17.8 µM [rising, single point] | –
N#CCSc1ncnc2ccccc12 | – | 5.01 µM [falling, partial curve]
CCC1=NN(C(=O)c2ccc(Br)cc2)C(O)(c2ccccc2)C1 (stereo not given) | 28.2 µM [rising, single point] | –
Cc1cc(OCCOc2cccc3cccnc23)cc(C)c1Cl | 35.5 µM [rising, single point] | –
CCOC(=O)C1=C(c2ccccc2)O/C(=C(/C#N)C(F)(F)F)S1 | 35.5 µM [rising, single point] | –
CN(C)/C=C/C(=O)c1ccc(-n2cccc2)cc1 | 0.0158 µM [falling, full curve, poor fit] | –
CCc1ccc(/C=c2\s/c(=C\C(=O)C(C)(C)C)[nH]c2=O)cc1 | 31.6 µM [rising, single point] | –
Cc1ccc(C(=O)CSc2nnc(CNc3nc(-c4ccccc4)cs3)n2C)cc1 | 12.6 µM [rising, single point] | –
COc1ccc2[nH]cc(CCNc3ncncc3-c3cccnc3)c2c1 | – | 7.94 µM [falling, partial curve]

Full records, looked up by structure. Order of values: AC50 [1]	AC50 [2]
`O=C(CSc1nc2c([nH]c3ccccc32)c(=O)n1-c1ccccc1)Nc1ccccc1F` is listed with 2 µM [falling, partial curve, poor fit]	–
`Cc1nnc(SCC(=O)N2CCN(S(=O)(=O)c3ccccc3)CC2)n1Cc1ccccc1` is listed with 25.1 µM [rising, single point]	20 µM [rising, single point]
`CC[n+]1c(/C=C2/C=C(C)CC(C)(C)C2)sc2ccc(OC)cc21` is listed with 35.5 µM [falling, single point]	35.5 µM [falling, single point]
`Cc1ccccc1-c1nn(-c2ccc(F)cc2F)cc1CNCCN(C)C` is listed with –	35.5 µM [falling, single point]

Carrying on:

SMILES | AC50 [1] | AC50 [2]
CCC(Sc1nc(N)cc(=O)[nH]1)C(=O)Nc1cc(C)on1 (stereo not given) | – | 0.447 µM [rising, full curve, poor fit]
O=C(NCc1ccc(F)cc1)C(=O)NCC(c1cccs1)S(=O)(=O)c1cccs1 (stereo not given) | – | 3.16 µM [rising, partial curve, poor fit]
COCCNc1cc(NCCOC)c([N+](=O)[O-])cc1[N+](=O)[O-] | 0.0794 µM [rising, full curve, poor fit] | –
CC1(C)CC(=O)C(C(C2=C(O)CC(C)(C)CC2=O)c2cccs2)C(=O)C1 (stereo not given) | 12.6 µM [rising, single point] | 12.6 µM [rising, single point]
Cc1ccc(NS(=O)(=O)c2ccc3[nH]c4c(c3c2)CCCCC4)cc1 | 20 µM [falling, single point] | 22.4 µM [falling, single point]
CCC(=O)Nc1nc(C)c(-c2csc(Nc3ccccn3)n2)s1 | – | 35.5 µM [falling, single point]
CCC(=O)Nc1cccc(C(=O)/C=C/c2cc(Br)ccc2OC)c1 | 22.4 µM [falling, single point] | –
CN(C1=C(NC(=O)c2ccc(Cl)cc2)C(=O)c2ccccc2C1=O)c1ccccc1 | 5.01 µM [falling, partial curve] | 31.6 µM [falling, partial curve]
CCOC(=O)C1=C(C)C(c2cccc(Oc3ccccc3)c2)NC(=S)N1 (stereo not given) | 25.1 µM [rising, partial curve] | –
Cc1cccc(NCC(=O)N/N=C/c2cccc(Br)c2)c1 | – | 12.6 µM [falling, partial curve]
O=C(COC(=O)c1cccc2c1C(=O)c1ccccc1C2=O)NC1CCCCC1 | 28.2 µM [rising, single point] | –
Cc1nnc(-c2cccc(Br)c2)c2cn(-c3ccc(Br)cc3)nc12 | 20 µM [falling, single point] | 14.1 µM [falling, single point]
Cc1cc(SCC(=O)N2CCCC2)nc2ccccc12 | 31.6 µM [rising, single point] | 20 µM [rising, partial curve]
Cn1c(=O)c(C(=O)COc2ccc(F)cc2Cl)c(N)n(Cc2ccccc2)c1=O | 25.1 µM [rising, single point] | –
O=C(Oc1c(CN2CCOCC2)cc(Cl)c2cccnc12)c1cccs1 | 7.94 µM [falling, partial curve] | 10 µM [falling, partial curve]
CCc1nnc(NC(=O)CSc2nnc(-c3ccccc3O)n2-c2ccc(C)cc2)s1 | – | 7.08 µM [falling, single point]
NS(=O)(=O)c1cnccc1Nc1ccc(Cl)c(Cl)c1 | 10 µM [rising, partial curve] | –
CCOC(=O)c1cnc2c(c(C)nn2C)c1Oc1ccccc1F | 11.2 µM [falling, partial curve] | –
O=C(Nc1ccc(Cl)c([N+](=O)[O-])c1)c1cnccn1 | 0.1 µM [rising, full curve, poor fit] | 0.794 µM [rising, partial curve]
O=C(O)Cn1nnnc1SCC(=O)Nc1ccc(F)cc1F | – | 0.02 µM [falling, full curve, poor fit]

SMILES | AC50 [1] | AC50 [2]
CCNc1nc(NC(C)(C)C)nc(N2CCCCC2)n1 | 11.2 µM [falling, partial curve] | 4.47 µM [falling, partial curve]
O=C(O/N=C1\C(=O)N(c2ccccc2)c2ccccc21)C1CC1 | 0.0316 µM [falling, full curve, poor fit] | –
CCOc1ccc(S(=O)(=O)N2CCN(c3ccccc3OC)CC2)c2cccnc12 | 20 µM [rising, single point] | 12.6 µM [rising, partial curve]
Cc1cc(O)cc(O)c1C(=O)Cc1ccccc1 | 12.6 µM [rising, partial curve] | 7.94 µM [rising, partial curve]
CCOC(=O)C1(CCc2ccccc2)CCN(C(=O)c2cnc(C)cn2)CC1 | 7.94 µM [falling, partial curve, poor fit] | –
Cc1ccc(CC(=O)Nc2ccc(F)c([N+](=O)[O-])c2)cc1C | 14.1 µM [rising, partial curve] | –
NC(=O)/C=C\C(=O)Nc1cccc(C(F)(F)F)c1 | 22.4 µM [falling, partial curve] | 12.6 µM [falling, partial curve]
CCS(=O)(=O)NCCc1csc2nc(-c3ccc(C)cc3)nn12 | – | 0.0126 µM [falling, full curve, poor fit]
CCCOc1ccccc1-c1nc2n[nH]nc2c(=O)[nH]1 | 3.98 µM [falling, partial curve] and 4.47 µM [rising, single point] | 3.16 µM [falling, partial curve]
Fc1ccccc1C1c2cccn2CCN1C(=S)Nc1ccc(Br)cc1 (stereo not given) | 35.5 µM [rising, single point] | –
CN(C)c1ccc(-c2cncnc2NCCN2CCOCC2)cc1 | 10 µM [falling, partial curve] | 10 µM [falling, partial curve]
O=C(Nc1cccc(S(=O)(=O)N2CCCCCC2)c1)c1ccc2ccccc2n1 | 35.5 µM [rising, single point] | –
CCN(CC)C(=O)c1sc2c(c1C)c(=O)n(CCc1ccccc1)c(=O)n2Cc1cccc(Cl)c1 | – | 35.5 µM [rising, single point]
COc1ccccc1NC(=O)c1ccc(NC(=O)CSc2nnnn2C)cc1 | 6.31 µM [rising, single point] | –
COCCNS(=O)(=O)c1ccc(-c2ccc(C)cc2)cc1 | 11.2 µM [rising, partial curve] | –
CN(C)c1ccc(CNC(=O)c2ccc3c(c2)N(C)C(=O)C2CCCCN32)cc1 (stereo not given) | 20 µM [rising, partial curve, poor fit] | –
O=C(c1cnc(N2CCOCC2)c2ccccc12)N1CCN(c2ccccc2F)CC1 | 0.178 µM [falling, full curve, poor fit] | 35.5 µM [falling, partial curve]
O=c1nc2cccc3c2=c(/c1=C(\O)c1ccccc1)c1ccccc1c3=O | – | 0.158 µM [falling, full curve, poor fit]
